Measured values taken from PMC3299683.

Molecular target: HA-TβRIII (type III TGF-β receptor)
Assay: co-IP; HA-TβRIII-stably expressing 4T07 mouse mammary cancer cells treated with TGF-β and LPS for one hour; IP anti-HA, endogenous TRAF6 detected

B1: endogenous TRAF6 (4T07 mouse mammary tumor cells) (protein, UniProt P70196 1-530)
chain: MSLLNCENSCGSSQSSSDCCAAMAASCSAAVKDDSVSGSASTGNLSSSFMEEIQGYDVEFDPPLESKYECPICLMALREAVQTPCGHRFCKACIIKSIRDAGHKCPVDNEILLENQLFPDNFAKREILSLTVKCPNKGCLQKMELRHLEDHQVHCEFALVNCPQCQRPFQKCQVNTHIIEDCPRRQVSCVNCAVSMAYEEKEIHDQSCPLANIICEYCGTILIREQMPNHYDLDCPTAPIPCTFSVFGCHEKMQRNHLARHLQENTQLHMRLLAQAVHNVNLALRPCDAASPSRGCRPEDPNYEETIKQLESRLVRQDHQIRELTAKMETQSMYVGELKRTIRTLEDKVAEMEAQQCNGIYIWKIGNFGMHLKSQEEERPVVIHSPGFYTGRPGYKLCMRLHLQLPTAQRCANYISLFVHTMQGEYDSHLPWPFQGTIRLTILDQSEALIRQNHEEVMDAKPELLAFQRPTIPRNPKGFGYVTFMHLEALRQGTFIKDDTLLVRCEVSTRFDMGGLRKEGFQPRSTDAGV
- binding: binds

Results are given in words; binding and its absence hold for the method and conditions named. Binding seen in cells or lysates may run through a third protein. Binding calls can cover weak binding; strength is not graded here.
